# Values quoted from earlier work in patent publication US6387910B1, “Drug of improving optic nerve head circulation disorder” (Akzo Nobel N.V., priority 1998, dated 2002).
# For at least one compound, name, drawing or mass did not settle the structure.
# System: blood flow in the optic nerve head
# Settings: literature: Nichi-Gan Kaishi Vol. 100, No. 12, p. 923, 1996; cited from earlier work
compound,measurement,value
COC(=O)C1=C(C)NC(C)=C(C(=O)OCCN(C)Cc2ccccc2)C1c1cccc([N+](=O)[O-])c1 (stereo not shown) [Nicardipine],action on the optic nerve head (blood flow),week activity
